Assay [1] addresses RUNX1 (Runt-related transcription factor 1) (mouse (endogenous in mouse tissue)) (UniProt Q03347). Put plainly: co-IP; 100 µg of lysate (Pierce IP Lysis buffer) incubated overnight at 4°C with the immunoprecipitating antibody (RUNX1 or NFκB1) along with an isotype control antibody; Protein A/G PLUS-Agarose 2 h at 4°C; SDS-PAGE and immunoblot; both orientations.
Assay [2] has as its target NFκB1 (p105/50) (mouse (endogenous in mouse tissue)) (UniProt P25799). Described as above.

The chains behind the UniProt entries cited, without tags or fusion partners. Where a name states a change or a piece, a line headed by the entry shows the natural chain unless it says otherwise.
UniProt Q03347: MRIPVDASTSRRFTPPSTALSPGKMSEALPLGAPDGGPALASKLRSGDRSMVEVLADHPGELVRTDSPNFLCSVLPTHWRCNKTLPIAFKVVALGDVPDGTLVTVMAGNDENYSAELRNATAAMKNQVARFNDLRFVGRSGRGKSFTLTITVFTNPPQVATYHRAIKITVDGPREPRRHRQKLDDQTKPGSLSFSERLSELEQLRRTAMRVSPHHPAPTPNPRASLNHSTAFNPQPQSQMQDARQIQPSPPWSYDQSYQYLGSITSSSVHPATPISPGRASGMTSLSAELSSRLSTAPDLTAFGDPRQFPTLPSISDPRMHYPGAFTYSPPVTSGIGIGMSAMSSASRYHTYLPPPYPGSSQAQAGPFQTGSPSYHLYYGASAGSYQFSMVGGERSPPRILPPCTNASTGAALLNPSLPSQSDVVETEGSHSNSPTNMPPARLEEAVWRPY
UniProt P25799: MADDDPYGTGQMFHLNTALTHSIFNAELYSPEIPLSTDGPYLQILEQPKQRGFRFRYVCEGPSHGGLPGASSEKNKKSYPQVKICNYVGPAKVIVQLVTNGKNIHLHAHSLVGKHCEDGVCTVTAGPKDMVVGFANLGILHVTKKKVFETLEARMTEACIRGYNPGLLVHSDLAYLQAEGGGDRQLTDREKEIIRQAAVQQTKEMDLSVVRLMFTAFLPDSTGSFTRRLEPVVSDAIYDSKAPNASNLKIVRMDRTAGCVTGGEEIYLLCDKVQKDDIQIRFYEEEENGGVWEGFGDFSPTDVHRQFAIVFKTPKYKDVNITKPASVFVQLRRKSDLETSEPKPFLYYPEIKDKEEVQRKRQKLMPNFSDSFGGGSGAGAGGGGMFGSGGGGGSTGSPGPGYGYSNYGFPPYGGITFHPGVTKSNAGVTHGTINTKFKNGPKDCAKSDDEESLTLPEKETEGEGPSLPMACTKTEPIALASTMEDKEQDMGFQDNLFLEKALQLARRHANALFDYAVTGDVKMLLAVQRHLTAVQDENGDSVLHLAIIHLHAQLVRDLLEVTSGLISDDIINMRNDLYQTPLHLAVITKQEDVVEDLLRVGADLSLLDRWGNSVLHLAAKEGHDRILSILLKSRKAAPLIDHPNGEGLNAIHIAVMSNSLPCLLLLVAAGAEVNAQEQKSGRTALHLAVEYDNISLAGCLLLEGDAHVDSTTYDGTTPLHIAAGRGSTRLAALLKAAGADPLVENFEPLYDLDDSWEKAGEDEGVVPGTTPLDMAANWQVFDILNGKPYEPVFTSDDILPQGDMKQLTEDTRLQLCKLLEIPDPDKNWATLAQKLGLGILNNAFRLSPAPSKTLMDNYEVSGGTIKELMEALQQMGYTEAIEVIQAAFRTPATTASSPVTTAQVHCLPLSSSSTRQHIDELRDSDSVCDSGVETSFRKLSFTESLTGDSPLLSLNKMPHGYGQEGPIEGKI

No constants are given. Whether binding was seen depends on the method and setting. Binding seen in cells or lysates may run through a third protein. Some results given as binding are weak or reduced against the parent protein; the word gives no strength.

Turning to “NFκB1 (p105/50) (from UniProt P25799-1 1-971)”, in assay [1], the binding result is reported as “binds”.
Take “RUNX1 (Runt-related transcription factor 1) (from UniProt Q03347 1-451)”: the binding entry in assay [2] is on record as “binds”.

For the origin of these results see article PMC10415221.
